Experimental findings from PubChem BioAssay AID493014 (National Center for Advancing Translational Sciences (NCATS), 2011) are described below.

The other results are listed elsewhere or left out. The main result of the screen is listed elsewhere. These columns were measured beside it and carry no call. Compounds called inactive in the main read-out are mostly missing here. Potencies come from curve fits of mixed quality, noted in brackets.

The nature of the assay: qHTS Assay to Find Inhibitors of Chronic Active B-Cell Receptor Signaling. Particulars: ABC-DLBCL IkBa-CBG/CBR reporter, luminescence ratio (green luciferase fused to IkBa over red control in TMD8 lymphoma cells), 4 h. A digest of the protocol: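 TMD8 ABC-DLBCL cells carrying doxycycline-inducible green luciferase fused to IkappaBalpha plus unfused red luciferase were exposed to compounds (up to 46 uM) for 4 hrs at 37C. Activity came from the overlap-corrected green/red luminescence ratio.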
Background: qHTS replaces the single test concentration by a dilution series.

The mark [1] stands for this setting: measured here: CBR red luminescence, cell number.
[2] abbreviates: measured here: IkBa-CBG green luminescence.

For orientation: AC50 means the midpoint of the concentration-response curve, whichever way the signal moves. Regarding `CCOC(=O)c1cnn(-c2ccccc2)c1N`, under setting [1], the AC50 was 29.1 µM [falling, single point].

For the compound `CC(C)C[C@H](NC(=O)N1CCn2c1nc1ccccc12)C(=O)NCCc1ccccc1`, the AC50 under setting [1] is 11.2 µM [falling, partial curve, poor fit].

`C/C(=N\NC(=O)c1ccc(N/N=C(\C)c2ccc(O)cc2)cc1)c1ccc(O)cc1`: the AC50 under setting [1] was 3.55 µM [falling, partial curve].

Regarding `Cc1nnc(NC(=O)c2sc3nc(-c4cccs4)cc(C(F)(F)F)c3c2N)s1`, the AC50 under setting [1] was 11.2 µM [falling, partial curve, poor fit].

As for `COc1ccc2[nH]c3c(=O)n(/N=C/[C@H]4C(C)C=C(C)CC4C)c(=O)[nH]c3c2c1` (some centres undefined), the AC50 under setting [1] was 3.16 µM [falling, partial curve, poor fit].

On to `O=C(Cn1cnc2cc([N+](=O)[O-])ccc2c1=O)Nc1ccc(N2CCOCC2)cc1`, for which the AC50 under setting [1] was 5.01 µM [falling, partial curve, poor fit].

Turning to `Cc1onc(-c2ccccc2)c1C(=O)N/N=C/c1ccc([N+](=O)[O-])s1`, the half-maximal activity concentration (AC50) under setting [1] is 10.3 µM [falling, partial curve].

For `CCOC(=O)c1cnn(-c2nc(-c3ccccc3F)cs2)c1C(F)(F)F`, under setting [1], the AC50 was 17.8 µM [rising, partial curve, poor fit].

Turning to `CN1C(=O)/C(=C/c2ccccc2F)Sc2ccc(C(=O)N3CCCC3)cc21`, the AC50 under setting [1] was 17.8 µM [falling, partial curve, poor fit].

As for `CN1C(=O)N(CN2CCCCC2)C2C1N(C)C(=O)N2CN1CCCCC1` (centres undefined), the concentration at half-maximal activity (AC50) by setting is: under setting [1], 6.51 µM [falling, single point]; under setting [2], 3.66 µM [rising, partial curve, poor fit].

Consider `Cc1cccc(C)c1OCCn1nc(C(=O)O)c2ccccc2c1=O`, for which, under setting [1], the half-maximal activity concentration (AC50) was 29.1 µM [falling, single point].

In the case of `CC(C)C(O)(C#CCN1CCCCCC1)c1ccccc1` (centres undefined), under setting [1], the AC50 was 35.5 µM [falling, single point].

`COc1ccccc1Nc1nc(-c2sc(NC(=O)c3ccccc3)nc2C)cs1`: under setting [1], the AC50 is 28.2 µM [falling, single point].

Regarding `CCCCNC(=O)NNC(=O)c1ccoc1C`, the AC50 under setting [1] was 12.6 µM [falling, partial curve].

For the compound `CC(=O)c1sc(NS(=O)(=O)c2ccc(C)cc2)nc1-c1ccccc1`, under setting [1], the AC50 was 35.5 µM [falling, single point].

Turning to `CNC(=O)c1cc2c(-c3ccccc3)nn(C)c2s1`, under setting [1], the AC50 was 3.55 µM [falling, single point].

In the case of `COc1ccc(O)c(/C=N/N=C2/C(=O)Nc3ccccc32)c1`, the AC50 under setting [1] is 14.1 µM [falling, single point].

Take `COc1cccc(C(=O)Nc2nnc(C(C)C)s2)c1`: the AC50 under setting [1] is 16.4 µM [falling, single point].

Turning to `O=C(O)c1nn(CCOc2ccccc2F)c(=O)c2ccccc12`, the AC50 under setting [1] is 0.224 µM [rising, partial curve, poor fit].

For the compound `N#Cc1cccc(NC(=O)CNc2cc(S(=O)(=O)N3CCOCC3)ccc2N2CCCC2)c1`, the AC50 under setting [1] was 6.51 µM [rising, single point].

Consider `Cc1nnc(SC2CC(=O)N(c3ccccc3)C2=O)s1` (centres undefined), for which the AC50 was 18.4 µM [falling, single point] under setting [1] and 23.1 µM [rising, partial curve, poor fit] under setting [2].

Regarding `Cn1c(=O)c2c(nc3sccn32)n(C)c1=O`, the AC50 under setting [2] was 23.1 µM [rising, single point].

As to `COC(=O)Nc1ccc(S(=O)(=O)N2c3ccccc3CCC2C)cc1` (centres undefined), the AC50 under setting [1] is 22.4 µM [falling, single point].

Take `CCOC(=O)Cc1csc(NC(=O)COc2ccc(C)cc2)n1`: the AC50 under setting [1] is 0.562 µM [falling, full curve, poor fit].

On to `CCCCOC(=O)c1ccc(NC(=O)Nc2ccc(OC)c(OC)c2)cc1`, for which, under setting [1], the AC50 was 14.6 µM [falling, partial curve, poor fit].

For `COc1ccc(/C=N/NC(=O)CSCc2ccc([N+](=O)[O-])cc2)cc1OC`, the AC50 under setting [1] is 29.1 µM [rising, single point].

Take `COc1ccc(CC(=O)Nc2ccc(-c3cn4ccccc4n3)cc2)cc1OC`: the AC50 under setting [1] is 29.1 µM [rising, single point].

As to `CCCCN(Cc1ccco1)C(=O)c1cc2c(=O)[nH]c3ccc(C)cc3c2s1`, the AC50 under setting [1] is 2.06 µM [falling, full curve, poor fit].

For the compound `CCOc1cc(/C=N/Nc2nn3cnnc3c3ccccc23)ccc1O`, under setting [1], the AC50 was 2.24 µM [falling, full curve].

With `O=C(C1CC1)N(Cc1ccco1)c1nc(-c2ccccc2)cs1`, the AC50 under setting [1] was 23.1 µM [rising, partial curve, poor fit].

In the case of `Clc1ccccc1-c1nc2ccccc2[nH]1`, the AC50 under setting [1] was 8.91 µM [falling, partial curve, poor fit].

On to `COc1ccccc1OCCNC(=O)C(c1ccccc1)c1ccccc1`, for which the AC50 under setting [1] was 25.1 µM [falling, partial curve, poor fit].

Take `C/C(=N\Nc1nc(C(=O)O)cs1)c1ccccc1`: the AC50 under setting [1] is 25.1 µM [falling, single point].

Turning to `CC1CCCN(C(=O)COC(=O)c2cc([N+](=O)[O-])ccc2N2CCOCC2)C1` (centres undefined), the AC50 under setting [1] was 23.1 µM [rising, single point].

Take `Cc1cc(Cl)ccc1OCC(=O)NCc1ccncc1`: the AC50 under setting [1] is 2 µM [rising, partial curve, poor fit].

Turning to `Cc1ccc(C2OCC3(CO)COC(c4ccc(C)cc4)N23)cc1` (centres undefined), the AC50 reads like this: under setting [1], 0.184 µM [rising, partial curve, poor fit]; under setting [2], 8.2 µM [falling, partial curve, poor fit].

Take `CCOc1ccc(C(=O)NCC(=O)OCC(=O)Nc2ccccc2OC)cc1`: under setting [1], the AC50 is 29.1 µM [rising, single point].

On to `Cc1ccc(C(=O)COC(=O)c2cccc(O)c2)s1`, for which the AC50 under setting [1] was 20.6 µM [falling, partial curve, poor fit].

As to `CC(C)c1ccc(NC(=O)C2=NNC(=O)CC2)cc1`, the AC50 under setting [1] was 6.31 µM [rising, single point].

Turning to `Fc1ccc(Nc2ncnc3ccccc23)cc1`, the AC50 under setting [1] was 3.16 µM [falling, full curve].

As to `O=C(/C=C/c1cn(-c2ccccc2)nc1-c1cccnc1)N1CCCC1`, the AC50 under setting [1] is 10 µM [falling, partial curve, poor fit].
